Experimental findings from patent US20230322706A1, “NOVEL BIARYL DERIVATIVE USEFUL AS DIACYLGLYCEROL ACYLTRANSFERASE 2 INHIBITOR, AND USE THEREOF” (LG CHEM, LTD., priority 2020, published 2023) are described below.

The chains behind the UniProt entries cited, without tags or fusion partners.
UniProt Q96PD7, whole entry: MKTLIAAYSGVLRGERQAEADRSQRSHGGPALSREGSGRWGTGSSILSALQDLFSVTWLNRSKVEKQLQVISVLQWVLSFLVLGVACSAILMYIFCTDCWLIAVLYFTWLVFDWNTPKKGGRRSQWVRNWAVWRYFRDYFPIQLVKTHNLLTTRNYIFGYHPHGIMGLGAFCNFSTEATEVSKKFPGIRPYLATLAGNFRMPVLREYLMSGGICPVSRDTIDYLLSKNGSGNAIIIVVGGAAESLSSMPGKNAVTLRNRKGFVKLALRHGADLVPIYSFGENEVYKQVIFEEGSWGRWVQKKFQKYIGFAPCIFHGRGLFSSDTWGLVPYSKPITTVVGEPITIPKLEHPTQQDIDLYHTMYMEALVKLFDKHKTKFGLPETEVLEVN

The match of structure and compound is tentative.

The experiment deals with human DGAT2 (Homo sapiens (Human), UniProt Q96PD7). Put plainly: Measurement of inhibitory effect against DGAT2 enzyme activity (SPA, Phospholipid FlashPlate, [14C]-TG production). To be noted: recombinant human DGAT2 membrane protein from Sf-21 cells; inhibition of [14C]-TG production; 37° C.

As a reminder, the IC50 is the midpoint of a concentration-inhibition curve. For `CCOc1cccnc1Oc1cccc(-c2cncc(NC(=O)Cc3ccc(OC(C)(C)C(=O)O)cc3)n2)c1`, the 50% inhibitory concentration (IC50) came to 0.25 µM.
